Measured data: PubChem BioAssay AID686937 (Drosophila RNAi Screening Center, 2013)
Purpose: 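Knock-downs that reduce output of a secreted reporter enzyme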 (primary screen). Cells: Drosophila S2 cells expressing secreted horseradish peroxidase. Reagents: long dsRNA against Drosophila genes. Time to read-out: about 5.5 days (5 days dsRNA, then 12 h reporter induction). Challenge: reporter expression induced after 5 days of dsRNA, read 12 h later; inducer not stated. Measured: 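After 5 days of dsRNA and 12 h of reporter induction, medium peroxidase read by chemiluminescence and scored as per-plate z-score; higher values mean more reporter released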. Reading the numbers: z-score: higher = more reporter secreted into medium.
The screen tested about 23,000 reagents; shown is a random part of those with a known target gene and a result. 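Reduced-secretion tags in replicate 1 do not always agree with the z-scores; no criterion for assigning the tags was given.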 A plus sign joins genes that one reagent is predicted to hit. Not all columns of the deposit are shown. Reagent sequences are not shown. Not stated in the record: the amount of reagent.

no.	predicted target	amplicon	z-score, replicate 1	z-score, replicate 2
1	CG3520	DRSC04383	0.28	0.48
2	CG7841	DRSC10922	0.31	0.09
3	CG32196	DRSC09548	0.7	0.38
4	CG1265	DRSC08288	0.51	0.04
5	CG12540	DRSC19471	0.23	0.43
6	Vha100-2 (Vacuolar H[+] ATPase 100kD subunit 2)	DRSC14152	0.5	0.47
7	Slu7	DRSC14729	-7	-5.96
8	CG11436	DRSC17783	0.34	0.27
9	CG42404	DRSC15558	0.14	0.14
10	Marf (Mitochondrial assembly regulatory factor)	DRSC18329	-0.41	-0.25
11	Snx3 (Sorting nexin 3)	DRSC16027	0.23	0.11
12	Irc (Immune-regulated catalase)	DRSC16454	0.16	0.29
13	CG43260 (retired record)	DRSC19313	0.19	0.71
14	CG14120	DRSC10124	0.13	0.37
15	Srrm1 (Serine-arginine repetitive matrix 1)	DRSC09835	0.14	0.08
16	CG31886	DRSC03248	0.45	0.38
17	CG14395	DRSC14852	-0.08	0.18
18	Cyp6a20 (Cytochrome P450 6a20)	DRSC07380	0.11	0.29
19	Or98a (Odorant receptor 98a)	DRSC16774	0.27	0.51
20	antr (antares)	DRSC22392	0.53	0.59
21	Itgbn (Integrin betanu subunit)	DRSC03493	0.59	0.48
22	CG4586	DRSC18373	0.41	0.38
23	CG5021	DRSC10469	-0.13	-0.28
24	CG31643	DRSC00906	0.72	0.38
25	CG7218	DRSC16216	0.03	0.18
26	Pgd (Phosphogluconate dehydrogenase)	DRSC18697	0.14	0.22
27	CR43670 + grp + CR43671 + 1 more	DRSC03541	0.14	0.26
28	CG4404	DRSC19897	-0.56	-0.62
29	zen2 (zerknullt-related)	DRSC12633	0.13	-0.84
30	Ravus	DRSC15126	0.39	0.66
31	l(2)k09022 (lethal (2) k09022)	DRSC02108	0.26	0.25
32	Ice2 (Interacts with the C terminus of ELL 2)	DRSC14268	0.38	0.52
33	CG15764	DRSC18070	0.38	0.4
34	Cyp12e1 (Cytochrome P450 12e1)	DRSC16622	0.2	0.34
35	Idh3b (Isocitrate dehydrogenase 3b)	DRSC16040	0.04	0.37

Continued; the last 3 above are carried over.
no.	predicted target	amplicon	z-score, replicate 1	z-score, replicate 2
33	CG15764	DRSC18070	0.38	0.4
34	Cyp12e1 (Cytochrome P450 12e1)	DRSC16622	0.2	0.34
35	Idh3b (Isocitrate dehydrogenase 3b)	DRSC16040	0.04	0.37
36	CG3257	DRSC04351	0.08	0.34
37	Osi17 (Osiris 17)	DRSC12284	0.4	0.76
38	CG11892	DRSC14428	0.31	0.2
39	sNPF (short neuropeptide F precursor)	DRSC02309	0.36	0.31
40	CG3625	DRSC00008	0.27	0.4
41	CG3625	DRSC00621	-0.22	-0.22
42	Mcm2 (Minichromosome maintenance 2)	DRSC16734	-0.08	0.04
43	Nipsnap	DRSC20169	0.3	0.27
44	Dyro (Dpt-YFP repressor by overexpression)	DRSC10598	0.1	0.33
45	CG18649	DRSC10334	0.21	0.29
46	Jasper (JIL-1 anchoring and stabilizing protein)	DRSC16352	0.49	0.52
47	Pgls (6-phosphogluconolactonase)	DRSC19769	0.36	0.61
48	CG32369	DRSC10042	-0.04	-0.02
49	CG32369	DRSC10834	0.01	0.13
50	CG5854	DRSC15894	0.57	0.09
51	CG11060	DRSC06029	0.03	-0.04
52	CG33286	DRSC11691	0.22	0.34
53	CG18661	DRSC02690	0.53	0.38
54	CG15528	DRSC15065	-0.27	-0.04
55	drpr (draper)	DRSC08143	0.38	0.2
56	drpr (draper)	DRSC08525	0.31	0.24
57	BaraB (Baramicin B)	DRSC06420	0.25	0.1
58	Sclp	DRSC19851	-2.04	-1.13
59	Jon65Aiv (Jonah 65Aiv)	DRSC10644	0.18	0.4
60	CG43397 + CG12902	DRSC06217	0.13	0.14
61	Dbp80 (Dead box protein 80)	DRSC22034	-0.47	0.3
62	CG3987	DRSC15531	0.15	0.5
63	Sbp2 (SECIS-binding protein 2)	DRSC10766	0.27	0.15
64	CG12898	DRSC06213	0.32	0.47
65	Atu (Another transcription unit)	DRSC12123	-0.37	-0.36
66	Tsp2A (Tetraspanin 2A)	DRSC18584	0.19	0.17
67	Obp83g (Odorant-binding protein 83g)	DRSC12269	0.12	0.36
68	CG31125	DRSC13684	0.18	0.7
69	CG7024	DRSC18414	0.29	0.21
70	CG10265	DRSC05986	0.22	0.22
71	CG10265	DRSC21680	0.17	-0.33
72	CG9701	DRSC11093	0.6	0.29
73	CG11151	DRSC19387	0.42	0.52
74	tup (tailup)	DRSC03627	0.1	0.25
75	CG33144	DRSC06132	0.67	0.5
76	CG33144	DRSC07024	0.25	-0.01
77	be (ben)	DRSC19607	0.15	0.5
78	be (ben)	DRSC19944	0.04	0.37
79	be (ben)	DRSC19945	0.21	0.4
80	HisCl1 (Histamine-gated chloride channel subunit 1)	DRSC14945	0.08	0.43
81	CG7299	DRSC03043	0.48	0.32
82	Mal-B1 (Maltase B1)	DRSC02416	0.56	0.47
